Reference: article PMC10163288
The list shows a part of the results.

B1: il10ra_site1_normal_mot_8756ee2cf497b5429c717dfc0c0bcfd6_0001_000000186_0001_1_13_H_._HHH_b1_07252_0001_0000200010_0000002_0_af2pred_0001 (protein)
chain: SSSSSEEIKEIQELSREAAELIRKGDPEEAEKLLERAFELAEELNSLNLLAVVEFLLEHVSSSSS
B2: il10ra_site1_sap_13_mot_HHH_b1_05357_000000034_0001_23_39_H_._HHH_b2_06821_0001_0000300029_0000001_0_0001_af2pred_0001 (protein)
chain: SSSSDDHERVLRLLREAIKALFEGDPEEAHELAEEALKLAEERNDPRLEEAARQVLRAIEGSSSS
B3: il10ra_site1_sap_21_mot_HHH_b1_05815_000000111_0001_1_19_H_._HHH_b2_06309_0001_0000400029_0000002_0_0001 (protein)
chain: SSSSEEEELHRLIERILHLLKEGNLEEAEELLERVRELAERLNNRAARAIVRSLEMVLEQLQSSS
B4: il10ra_site1_normal_mot_HHH_b1_01821_000000158_0001_23_39_H_._HHH_b1_05213_af2_0001_0000700023_0000001_0 (protein)
chain: SSSSSELEERVEELLEKAEELAERGDRRWLELLAEALRLVFEHGNQELLQRIWEVFKKLASSSSS
B5: il10ra_site1_normal_mot_HHH_b2_00277_af2_000000172_0001_1_17_H_._HHH_b2_04887_0001_0000100003_0000001_0_af2pred_0001 (protein)
chain: SSSSSDEEEEEVEELLEEAKHIEDPDERTYVLIRAFAVANRGNNPELKELVRRVALELSESSSSS
B6: il10ra_site1_normal_mot_HHH_b1_08477_000000091_0001_40_57_H_._HHH_eva_0771_0001_0000400014_0000001_0_af2pred_0001 (protein)
chain: SSSSSRVEAAIRDVKAAAEHLGDEEVLELVERIREEYEEGKLDPEEALKLLAKLSRRLARSSSSS
B7: il10ra_site1_sap_14_mot_HHH_b2_03438_af2_000000049_0001_18_34_H_._HHH_b1_04762_0001_0000200008_0000001_0_0001 (protein)
chain: SSSSSNEEAVEMALLAAELAKEAGDPEMAKIAVRFAEHLAEWLGDEELEELVEEVKERLSSSSSS
B8: il10ra_site1_sap_17_mot_HHH_b1_05357_000000034_0001_23_39_H_._HHH_b2_02261_0001_0000400025_0000001_0_0001 (protein)
chain: SSSSSRRAARFHLDMARQAFELNNKEDLRSLLYALEALLEITGDPELERYVEEVQELLEELSSSS
B9: il10ra_site1_normal_mot_HHH_b2_06054_000000214_0001_39_53_H_._HHH_b1_07805_0001_0000200011_0000001_0_af2pred_0001 (protein)
chain: SSSSSEFEREARELFEEAKELLEEGDPKEVVKIIRRLAELARRFDNPKAVELALRLARELFSSSS
B10: il10ra_site1_sap_22_mot_HHH_b2_00479_000000091_0001_1_12_H_._HHH_b1_07261_af2_0001_0000700024_0000001_1_0001 (protein)
chain: SSSSSDERERLLELLRQAFRLALRGDPEEAREVLEEALELAEELGDERAVKQIRDMLKALSSSSS
B11: il10ra_site1_sap_23_mot_HHH_b2_02053_af2_000000006_0001_3_19_H_._HHH_b1_01074_0001_0000700032_0000001_0_0001 (protein)
chain: SSSSDKEELSEEVLEELERLAEEGDRERFSRLAQEALRLAYELRDPELLRALWELVRRFASSSSS
B12: il10ra_site1_normal_mot_HHH_b2_07006_000000108_0001_1_19_H_._HHH_b1_03230_0001_0000500068_0000001_0 (protein)
chain: SSSSDEEYELLRRAIEELLELLREGNPEEAERLFREVERELEEAGNFVAVFSLRHAFRRTSSSSS
B13: il10ra_site1_normal_mot_493e05f641973f3adf044177f88ae147_0001_af2_000000048_0001_1_12_H_._HHH_b1_05964_af2_0001_0000500020_0000001_0_af2pred_0001 (protein)
chain: SSSSSSQEEALEHAVEVLVRAFKLSEEQKEELEELARELLERGYDPEEVLKILVERAKKLSSSSS
B14: il10ra_site1_normal_mot_HHH_b1_02062_000000185_0001_1_20_H_._HHH_b1_06352_0001_0000500034_0000002_0 (protein)
chain: SSSSDLRREAYELSRKIAELLSEGNPEEAQELLEELRKIIEELGNELLEFILRHLEQDLNSSSSS
B15: il10ra_site1_normal_mot_HHH_b2_00475_000000107_0001_44_57_H_._HHH_b2_06725_0001_0000100004_0000002_0 (protein)
chain: SSSSDEEEERYLEIAKHFIEAASKKNPELARIIARVLLKWLEERGDEELAEELRELLEELSSSSS
B16: il10ra_site1_normal_mot_HHH_b1_01874_000000035_0001_1_20_H_._HHH_b2_01313_af2_0001_0000100002_0000001_0_af2pred_0001 (protein)
chain: SSSSDEEAFKLLRRALEARRRGNLEEAEELAEKAREIAEENNNEIFLFAIERLERDLRLLGSSSS
B17: il10ra_site1_sap_20_mot_HHH_b1_01233_000000085_0001_1_18_H_._HHH_b2_02546_0001_0000200011_0000001_1_0001 (protein)
chain: SSSSSDEEFIRLLQEAIRLAFQNRDEELLRALWRLAKEWGKEGDEKYAEELRELIEEVGSSSSSS
B18: il10ra_site1_normal_mot_b26a303360aa2756ef5b79665ce52f45_0001_000000179_0001_1_11_H_._HHH_b2_08246_0001_0000200038_0000002_0 (protein)
chain: SSSSSEESQELYKLSREAAELLAEGDEEEARRLLEEALELAEEKNNFVFLFSLEHLLRAQSSSSS
B19: il10ra_site1_normal_mot_HHH_b2_00643_000000120_0001_23_40_H_._HHH_b2_03794_0001_0000300008_0000001_0 (protein)
chain: SSSSDAIQEAWEAVKRAAELFQRGDPEKAEELLEEAEERLEELGNEVAVLQVRHLLRAIEQSSSS
B20: il10ra_site1_sap_19_mot_HHH_b2_05410_000000077_0001_20_37_H_._HHH_b1_01497_0001_0000400057_0000002_0_0001 (protein)
chain: SSSSSREEVEELLEELKELLEEGDRERFLRLAQEIIHAAIQVSDPELLRALWELVREWAENSSSS
B21: il10ra_site1_sap_25_mot_HHH_b2_08186_000000021_0001_43_56_H_._HHH_b2_08341_0002_0000500037_0000003_0_0001 (protein)
chain: SSSSSSDEEEVEELLERAEHIEDRQERAELLLEALRIAFRAKNPELIQAVWRAIREIVGSSSSSS
B22: il10ra_site1_normal_mot_HHH_b1_05056_000000217_0001_1_20_H_._HHH_b2_04080_0001_0000400030_0000001_0 (protein)
chain: SSSSSSSSEEEVEKILEEAEEVDDQREANEILLRALRLAFELQDPEALRLVWKVVKELSSSSSSS
B23: il10ra_site1_normal_mot_HHH_b1_04771_000000013_0001_40_56_H_._HHH_b2_03045_0001_0000400026_0000001_0 (protein)
chain: SSSSSDDELLELSLEAFRLALRGNPEEAEKVLEQAEKLAEELNNERALRVVRDLLEALGSSSSSS
B24: il10ra_site1_normal_mot_HHH_b2_00837_af2_000000287_0001_40_54_H_._HHH_b1_04782_af2_0001_0000400014_0000001_0 (protein)
chain: SSSSDEEERVEELIEEAEELIEEGDPRRASELLAEAVRHAFRSKDEELLRRVWEIVHKLKSSSSS

What follows are binders tested against il10ra, Q13651 (assay: yeast display titration).

Apparent Kd, inactive:
B1 no binding seen
B2 no binding seen
B3 > 851 nM
B4 no binding seen
B5 no binding seen
B6 no binding seen
B7 no binding seen
B8 > 1280 nM
B9 no binding seen
B10 no binding seen
B11 no binding seen
B12 no binding seen
B13 no binding seen
B14 no binding seen
B15 > 1290 nM
B16 no binding seen
B17 no binding seen
B18 no binding seen
B19 no binding seen
B20 > 1500 nM
B21 no binding seen
B22 no binding seen
B23 no binding seen
B24 no binding seen

Not a retest: an excerpt of the list.
Apparent Kd, inactive:
B7 no binding seen
B8 > 1280 nM
